For test [1], the target named is CYP152K6 from Bacillus methanolicus MGA3 (Bacillus methanolicus MGA3) (UniProt I3DZK9). The test can be described thus: SEC; gel-filtration analysis; the methods tell only of a Superdex 200 16/600 column in buffer A (100 mM potassium phosphate pH 8.0, 200 mM KCl); both purified. On the technique in general: Size exclusion chromatography separates by hydrodynamic size, large species first.

Test [2] shares this target. The test can be described thus: crystal structure; X-ray, 1.3 Å, space group C2, one monomer per asymmetric unit, tetradecanoic acid bound; both purified.

No constants are given. Whether binding was seen depends on the method and setting.

B1: CYP152K6 from Bacillus methanolicus MGA3 (enzyme, UniProt I3DZK9 1-419)
chain: MSNINQMPREEGIDSTWRLMEEGYMYILNRRHSFNSDIFETRLLGKKAICMGGKEAAEIFYDTEKFKRKDAAPNRVVQTLFGKNGVQALDGQTHKHRKEMFMSIMSPDELEKLTDITKKQWEIAVDKWEQMDKVILYEEAKEIMCRTACQWAGVPVQENEVKRLTKNLGAMFESAAAVGLKHWLGRHARNYEEIWIEELIDRVRDGKVNPPENTTLHKFSWYRDLEGNLLDTETAAVEVINILRPIVAIAIFINFIALALHHYPEEKEKLKSGDKKYSQMFVQEVRRFYPFFPFVVALVKKDFTWKGYKFEEGTLTLLDLYGTNHDPEIWKNPDVFSPDRFAKWEGSPFSFIPQGGGDYFMGHRCAGEWVTIEVMKVSLDYLTNRMDYEVPDQDLSFSMASMPSIPHSKVVIKNVKKRI
For B1, the binding result in test [1] and in test [2] was “no binding” each time.

The values are drawn from PMC6167049, “Structural and catalytic properties of the peroxygenase P450 enzyme CYP152K6 from Bacillus methanolicus” (Journal of Inorganic Biochemistry, 2018).
